Experimental data: PubChem BioAssay AID720505 (Drosophila RNAi Screening Center, 2013)
The screen tested about 20,000 reagents; below is a random part of those with a known target gene and a result. In the full data, about 2,100 (10%) were called active. 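Raw plate signals without normalisation; calls rest on control-based scores that were not deposited; replicate 2 separates called from uncalled poorly.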 Names joined by + are all predicted targets of the reagent. Not given: the amount of reagent, the time to read-out.

- Assay: 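Genes needed for store-operated calcium entry in fly cells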 (primary screen)
- Cells: Drosophila S2R+ cells
- Reagent: long dsRNA against Drosophila genes
- Challenge: thapsigargin (2 µM) in calcium-free buffer to empty internal stores, then 2 mM calcium added back
- Measurement: 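Fluo-4 signal in 384-well plates read on a FLIPR after thapsigargin (2 µM, calcium-free) store depletion and 2 mM calcium add-back; unnormalised mean endpoint per well; screen run twice, selected wells retested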
- Reading the numbers: calcium signal: higher = more calcium entry after store depletion
- Active means: 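Knock-downs counted as hits when calcium entry dropped relative to STIM1 positive and Rho1 negative controls present on each plate; roughly 1500 genes called, with reductions of differing size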
- Calls: active = called as lowering calcium entry; inactive = not called

{"target": "Rbf (Retinoblastoma-family protein)", "DRSC id": "DRSC18704", "calcium signal, replicate 1": 60.2, "calcium signal, replicate 2": 122, "Outcome": "active"}
{"target": "CG16762", "DRSC id": "DRSC08493", "calcium signal, replicate 1": 127, "calcium signal, replicate 2": 139, "Outcome": "inactive"}
{"target": "CG14397", "DRSC id": "DRSC02381", "calcium signal, replicate 1": 176, "calcium signal, replicate 2": 73.3, "Outcome": "inactive"}
{"target": "mam (mastermind)", "DRSC id": "DRSC05468", "calcium signal, replicate 1": 84.1, "calcium signal, replicate 2": 106, "Outcome": "inactive"}
{"target": "mam (mastermind)", "DRSC id": "DRSC07648", "calcium signal, replicate 1": 105, "calcium signal, replicate 2": 175, "Outcome": "inactive"}
{"target": "mam (mastermind)", "DRSC id": "DRSC22971", "calcium signal, replicate 1": 87.7, "calcium signal, replicate 2": 66.1, "Outcome": "inactive"}
{"target": "CG4666", "DRSC id": "DRSC18379", "calcium signal, replicate 1": 216, "calcium signal, replicate 2": 84, "Outcome": "inactive"}
{"target": "mTerf5 (mitochondrial transcription termination factor 5)", "DRSC id": "DRSC16209", "calcium signal, replicate 1": 156, "calcium signal, replicate 2": 195, "Outcome": "inactive"}
{"target": "RIOK2 (RIO kinase 2)", "DRSC id": "DRSC14413", "calcium signal, replicate 1": 252, "calcium signal, replicate 2": 123, "Outcome": "inactive"}
{"target": "CG40045", "DRSC id": "DRSC21232", "calcium signal, replicate 1": 176, "calcium signal, replicate 2": 123, "Outcome": "inactive"}
{"target": "CG10139", "DRSC id": "DRSC05972", "calcium signal, replicate 1": 180, "calcium signal, replicate 2": 162, "Outcome": "inactive"}
{"target": "kdn (knockdown)", "DRSC id": "DRSC18328", "calcium signal, replicate 1": 160, "calcium signal, replicate 2": 99, "Outcome": "inactive"}

Sorted by “calcium signal, replicate 2” (ascending): some entries from above
{"target": "Rbf (Retinoblastoma-family protein)", "DRSC id": "DRSC18704", "calcium signal, replicate 1": 60.2, "calcium signal, replicate 2": 122, "Outcome": "active"}
{"target": "CG16762", "DRSC id": "DRSC08493", "calcium signal, replicate 1": 127, "calcium signal, replicate 2": 139, "Outcome": "inactive"}

The list goes on.
{"target": "CG42258", "DRSC id": "DRSC19741", "calcium signal, replicate 1": 67.7, "calcium signal, replicate 2": 124, "Outcome": "active"}
{"target": "CG42258", "DRSC id": "DRSC19783", "calcium signal, replicate 1": 59, "calcium signal, replicate 2": 115, "Outcome": "active"}
{"target": "CG42258", "DRSC id": "DRSC23161", "calcium signal, replicate 1": 122, "calcium signal, replicate 2": 97.1, "Outcome": "inactive"}
{"target": "CG43691", "DRSC id": "DRSC06650", "calcium signal, replicate 1": 146, "calcium signal, replicate 2": 203, "Outcome": "inactive"}
{"target": "CG43691", "DRSC id": "DRSC06651", "calcium signal, replicate 1": 112, "calcium signal, replicate 2": 121, "Outcome": "inactive"}
{"target": "CG30486", "DRSC id": "DRSC06680", "calcium signal, replicate 1": 108, "calcium signal, replicate 2": 160, "Outcome": "inactive"}
{"target": "Sbf (SET domain binding factor)", "DRSC id": "DRSC16852", "calcium signal, replicate 1": 99.3, "calcium signal, replicate 2": 122, "Outcome": "inactive"}
{"target": "Spt (Spitting Image)", "DRSC id": "DRSC07123", "calcium signal, replicate 1": 70, "calcium signal, replicate 2": 110, "Outcome": "inactive"}
{"target": "CG8738", "DRSC id": "DRSC07256", "calcium signal, replicate 1": 121, "calcium signal, replicate 2": 173, "Outcome": "inactive"}
{"target": "Jhbp16 (Juvenile hormone binding protein 16)", "DRSC id": "DRSC15039", "calcium signal, replicate 1": 183, "calcium signal, replicate 2": 214, "Outcome": "inactive"}
{"target": "CG42307 + mus312", "DRSC id": "DRSC11008", "calcium signal, replicate 1": 70, "calcium signal, replicate 2": 63, "Outcome": "inactive"}
{"target": "Den1 (Deneddylase 1)", "DRSC id": "DRSC07195", "calcium signal, replicate 1": 145, "calcium signal, replicate 2": 185, "Outcome": "inactive"}
{"target": "Pask (PAS kinase)", "DRSC id": "DRSC04337", "calcium signal, replicate 1": 109, "calcium signal, replicate 2": 107, "Outcome": "inactive"}
{"target": "CG11843", "DRSC id": "DRSC14401", "calcium signal, replicate 1": 154, "calcium signal, replicate 2": 163, "Outcome": "inactive"}
{"target": "CG9628", "DRSC id": "DRSC11082", "calcium signal, replicate 1": 95, "calcium signal, replicate 2": 117, "Outcome": "inactive"}
{"target": "CG17028", "DRSC id": "DRSC10239", "calcium signal, replicate 1": 75, "calcium signal, replicate 2": 128, "Outcome": "inactive"}
